Measurements as given in the supplement of paper PMC8728848.
The other results are listed elsewhere or left out.

Columns and labels:
[1] = biological target: Neu5Gc(a2-8)Neu5Gc(a2-6)Gal(b1-4)GlcNAc; test: glycan array binding signal (z-score within array); higher = stronger binding; settings: glycan notation: IUPAC condensed, linker removed
Outline: (§1)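 Glycan array data were curated from 3228 arrays in the Consortium for Functional Glycomics database and kept only where the protein sequence was available. Glycan names were converted to IUPAC-condensed notation, and columns mapping to the same glycan were averaged. The binding signal is a within-array Z-score, averaged across arrays of the same protein sequence at different concentrations or buffers and across linkers. Negative Z-scores can be read as non-binding.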

[2] = biological target: Neu5Gc(b2-6)Gal(b1-4)GlcNAc; test: as above; settings: glycan notation: IUPAC condensed, linker removed
Outline: as §1

B1: PhypaEULS3 (Physcomitrella patens) (protein)
chain: MLPVRLHCKADPNFNLAAVPGQGPVMVPFSPNDDFQVWYKDVTMSTRVKDETGSSAFSLINKATGQALRHAPEDLAQCLLADYDSNALDQTVLWTMSEDMGQGYCCIRLASQITRNLDVFRGDKKSGGVKEGSPVITFAWKKQDNQIWKMITAILEQKLISEEDLNSAVDHHHHHH
In the case of B1, the “glycan array binding signal (z-score)” value [1] is reported as -1.13 and the “glycan array binding signal (z-score)” value [2] is reported as -0.319.
